Record: PubChem BioAssay AID1053208 (Peter MacCallum Cancer Centre, 2014)
Shown is one part, drawn at random, of about 17,000 reagents tested. Over the whole deposit, 788 (4.7%) were called active. 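Calls rest on z-score classes alone; an extra cut-off of viability at most 70% of control was not applied to them.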 Further read-outs or replicates are left out here.

Aim: 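Synthetic lethal interactions between gene loss and doxorubicin in osteosarcoma cells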 (primary screen)
System: mouse osteosarcoma cells, early-passage culture from an engineered mouse model of fibroblastic bone tumour
Reagent: siRNA pool against mouse genes, 40 nM
Duration: about 120 h (48 h before drug, then 72 h with drug)
Conditions: doxorubicin 100 nM for 72 h, roughly 30-40% inhibitory dose
Detection: 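Luminescent ATP signal taken as viability with or without 100 nM doxorubicin for 72 h; mean of two wells set against non-targeting siRNA and turned into robust z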
Reading the numbers: viability z-score with doxorubicin: higher = more viable cells under doxorubicin; viability z-score without drug: higher = more viable cells with knock-down alone
Hit rule: 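Called active if knock-down leaves viability unchanged without drug (z within -2 to 2) but lowers it with doxorubicin (z at or under -2)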

Eif4e
- combined z-score class: no change with or without drug
- viability z-score with doxorubicin: -1.69
- viability z-score without drug: 0.34
- call: inactive

Pkn2
- combined z-score class: no change with or without drug
- viability z-score with doxorubicin: -1.35
- viability z-score without drug: -1.18
- call: inactive

Ptprk
- combined z-score class: no change with or without drug
- viability z-score with doxorubicin: 0
- viability z-score without drug: -1.18
- call: inactive

Vps53
- combined z-score class: no change with or without drug
- viability z-score with doxorubicin: 0.79
- viability z-score without drug: 0.84
- call: inactive

Fam229b
- combined z-score class: no change with or without drug
- viability z-score with doxorubicin: -0.45
- viability z-score without drug: -0.17
- call: inactive

Mysm1
- combined z-score class: no change with or without drug
- viability z-score with doxorubicin: -0.11
- viability z-score without drug: -0.84
- call: inactive

Pcdha11
- combined z-score class: low cell count with doxorubicin only
- viability z-score with doxorubicin: -2.25
- viability z-score without drug: 0.17
- call: active

Mmp28
- combined z-score class: no change with or without drug
- viability z-score with doxorubicin: 0.22
- viability z-score without drug: 0.84
- call: inactive

Hnf4g
- combined z-score class: no change with or without drug
- viability z-score with doxorubicin: -1.12
- viability z-score without drug: -0.51
- call: inactive

Ces2g
- combined z-score class: no change with or without drug
- viability z-score with doxorubicin: -0.67
- viability z-score without drug: 0.17
- call: inactive

Cd8b1
- combined z-score class: no change with or without drug
- viability z-score with doxorubicin: -1.01
- viability z-score without drug: -1.18
- call: inactive

Ppp1r7
- combined z-score class: no change with or without drug
- viability z-score with doxorubicin: -0.56
- viability z-score without drug: 0.17
- call: inactive

Pkp3
- combined z-score class: no change with or without drug
- viability z-score with doxorubicin: 0.67
- viability z-score without drug: 0.34
- call: inactive

Tssk5
- combined z-score class: no change with or without drug
- viability z-score with doxorubicin: 0.45
- viability z-score without drug: 0.51
- call: inactive

Atp5mc2
- combined z-score class: no change with or without drug
- viability z-score with doxorubicin: -1.12
- viability z-score without drug: -0.51
- call: inactive

Slc10a2
- combined z-score class: no change with or without drug
- viability z-score with doxorubicin: -0.45
- viability z-score without drug: -1.18
- call: inactive

Adamts15
- combined z-score class: no change with or without drug
- viability z-score with doxorubicin: -1.01
- viability z-score without drug: -0.17
- call: inactive

Mtrex
- combined z-score class: no change with or without drug
- viability z-score with doxorubicin: 0
- viability z-score without drug: -0.17
- call: inactive

Lpcat1
- combined z-score class: no change with or without drug
- viability z-score with doxorubicin: -1.57
- viability z-score without drug: -0.84
- call: inactive

Entr1
- combined z-score class: no change with or without drug
- viability z-score with doxorubicin: -1.01
- viability z-score without drug: -1.52
- call: inactive

Sfxn1
- combined z-score class: no change with or without drug
- viability z-score with doxorubicin: -0.67
- viability z-score without drug: -0.51
- call: inactive

Or1e30
- combined z-score class: no change with or without drug
- viability z-score with doxorubicin: 0
- viability z-score without drug: -0.84
- call: inactive

Arhgap45
- combined z-score class: no change with or without drug
- viability z-score with doxorubicin: -1.35
- viability z-score without drug: -0.51
- call: inactive

Fastkd5
- combined z-score class: no change with or without drug
- viability z-score with doxorubicin: -1.46
- viability z-score without drug: 0.51
- call: inactive

Tkfc
- combined z-score class: no change with or without drug
- viability z-score with doxorubicin: 0.9
- viability z-score without drug: 0.51
- call: inactive

Fbxw21
- combined z-score class: no change with or without drug
- viability z-score with doxorubicin: -1.35
- viability z-score without drug: 0.67
- call: inactive

Or4z4
- combined z-score class: no change with or without drug
- viability z-score with doxorubicin: -1.35
- viability z-score without drug: -0.17
- call: inactive

Hadhb
- combined z-score class: no change with or without drug
- viability z-score with doxorubicin: 0
- viability z-score without drug: -1.85
- call: inactive

Laid out differently: entries from further up
target,combined z-score class,viability z-score with doxorubicin,viability z-score without drug,call
Vps53,no change with or without drug,0.79,0.84,inactive
Fam229b,no change with or without drug,-0.45,-0.17,inactive
Mysm1,no change with or without drug,-0.11,-0.84,inactive
Pcdha11,low cell count with doxorubicin only,-2.25,0.17,active
